Measured data: PubChem BioAssay AID652272 (Drosophila RNAi Screening Center, 2013)
In all, the deposit lists about 21,000 reagents; shown is a random part of those with a known target gene and a result. Of all reagents, 503 (2.4%) got an active call. 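Raw plate light values, not normalised; calls rest on replicate z-scores that were not deposited; hits include reporter decreases as well as increases.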 Not given: the amount of reagent, the time to read-out.

- Screen: 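Genes whose knock-down decreases or increases Hedgehog reporter output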 (primary screen)
- Cells: Drosophila clone 8 (Cl8) cells
- Knock-down reagent: long dsRNA against Drosophila genes
- Read-out: 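Firefly light from a Hedgehog-responsive ptc promoter reporter and Renilla reference light, both read on a plate reader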
- Reading the numbers: firefly Hh reporter signal: higher = more ptc reporter light; Renilla reference signal: higher = more Renilla control light
- Rule for the call: 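Hit when the z-score averaged over two replicates is under -2 or over +3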
- Calls: active = hit: reporter lowered or raised; inactive = not a hit

Depletion of Ugt302K1 [DRSC16086] resulted in: firefly Hh reporter signal, replicate 1 = 1.03e5; firefly Hh reporter signal, replicate 2 = 1.46e5; Renilla reference signal, replicate 1 = 3656; Renilla reference signal, replicate 2 = 4509; inactive. Against Phb1 [DRSC03563], the values are firefly Hh reporter signal, replicate 1 = 61845; firefly Hh reporter signal, replicate 2 = 78506; Renilla reference signal, replicate 1 = 2586; Renilla reference signal, replicate 2 = 3513; inactive. Against da [DRSC03517], the values are firefly Hh reporter signal, replicate 1 = 1.43e5; firefly Hh reporter signal, replicate 2 = 89017; Renilla reference signal, replicate 1 = 3680; Renilla reference signal, replicate 2 = 7835; inactive. With knock-down of CG30373 [DRSC05081], the record shows firefly Hh reporter signal, replicate 1 = 1.30e5; firefly Hh reporter signal, replicate 2 = 2.09e5; Renilla reference signal, replicate 1 = 3683; Renilla reference signal, replicate 2 = 10315; inactive. ACXD [DRSC07843] scored firefly Hh reporter signal, replicate 1 = 46278; firefly Hh reporter signal, replicate 2 = 35522; Renilla reference signal, replicate 1 = 1588; Renilla reference signal, replicate 2 = 2445; inactive. Knock-down of CR31700 [DRSC03682] gave: firefly Hh reporter signal, replicate 1 = 1.58e5; firefly Hh reporter signal, replicate 2 = 2.87e5; Renilla reference signal, replicate 1 = 4359; Renilla reference signal, replicate 2 = 12820; inactive.

CG11964 [DRSC14447] showed firefly Hh reporter signal, replicate 1 = 1.06e5; firefly Hh reporter signal, replicate 2 = 73444; Renilla reference signal, replicate 1 = 3920; Renilla reference signal, replicate 2 = 2948; inactive. Silencing of OstDelta [DRSC06980] came out at: firefly Hh reporter signal, replicate 1 = 1.35e5; firefly Hh reporter signal, replicate 2 = 91213; Renilla reference signal, replicate 1 = 5437; Renilla reference signal, replicate 2 = 4304; inactive.

Targets above whose gene name starts with C or c (3):
CG30373 [DRSC05081] — firefly Hh reporter signal, replicate 1: 1.30e5; firefly Hh reporter signal, replicate 2: 2.09e5; Renilla reference signal, replicate 1: 3683; Renilla reference signal, replicate 2: 10315; Outcome: inactive
CR31700 [DRSC03682] — firefly Hh reporter signal, replicate 1: 1.58e5; firefly Hh reporter signal, replicate 2: 2.87e5; Renilla reference signal, replicate 1: 4359; Renilla reference signal, replicate 2: 12820; Outcome: inactive
CG11964 [DRSC14447] — firefly Hh reporter signal, replicate 1: 1.06e5; firefly Hh reporter signal, replicate 2: 73444; Renilla reference signal, replicate 1: 3920; Renilla reference signal, replicate 2: 2948; Outcome: inactive

Next results:
Against Ir100a [DRSC14329] the deposit lists firefly Hh reporter signal, replicate 1 = 1.22e5; firefly Hh reporter signal, replicate 2 = 3.44e5; Renilla reference signal, replicate 1 = 4442; Renilla reference signal, replicate 2 = 11341; inactive. Silencing of Xrcc2 [DRSC19984] gave: firefly Hh reporter signal, replicate 1 = 99344; firefly Hh reporter signal, replicate 2 = 2.60e5; Renilla reference signal, replicate 1 = 3928; Renilla reference signal, replicate 2 = 11429; inactive. For CG34199 [DRSC05867], the values are firefly Hh reporter signal, replicate 1 = 1.01e5; firefly Hh reporter signal, replicate 2 = 2.46e5; Renilla reference signal, replicate 1 = 2802; Renilla reference signal, replicate 2 = 9814; inactive. After knock-down of Tsf2 [DRSC09751] the results were firefly Hh reporter signal, replicate 1 = 1.35e5; firefly Hh reporter signal, replicate 2 = 71344; Renilla reference signal, replicate 1 = 4561; Renilla reference signal, replicate 2 = 2656; inactive.
